From PMC8436908
These are yes or no findings as the source states them, for the method shown. Binding seen in cells or lysates may run through a third protein. Binding can be weak; no strength is given.

Molecular target: T1, prolactin receptor (PRLR) (mouse (endogenous in GT1-7)) (UniProt Q08501)
T1 sequence: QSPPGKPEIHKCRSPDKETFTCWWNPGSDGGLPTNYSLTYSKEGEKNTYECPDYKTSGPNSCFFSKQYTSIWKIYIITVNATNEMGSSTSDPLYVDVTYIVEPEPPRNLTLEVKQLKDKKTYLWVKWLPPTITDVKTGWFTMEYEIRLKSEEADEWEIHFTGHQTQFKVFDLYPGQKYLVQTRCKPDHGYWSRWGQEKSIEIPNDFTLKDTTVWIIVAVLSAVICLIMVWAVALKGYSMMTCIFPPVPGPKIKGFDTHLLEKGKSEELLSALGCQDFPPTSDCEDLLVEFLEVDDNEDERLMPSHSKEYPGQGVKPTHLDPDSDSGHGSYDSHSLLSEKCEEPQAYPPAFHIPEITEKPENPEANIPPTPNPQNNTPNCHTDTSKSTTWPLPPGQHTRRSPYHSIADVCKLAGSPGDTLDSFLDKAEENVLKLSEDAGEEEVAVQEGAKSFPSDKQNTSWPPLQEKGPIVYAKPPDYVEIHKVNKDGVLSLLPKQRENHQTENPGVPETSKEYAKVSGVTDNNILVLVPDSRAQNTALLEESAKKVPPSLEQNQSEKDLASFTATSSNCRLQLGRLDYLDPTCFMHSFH
Test: co-IP; anti-PRLR antibody (IgG as control) added to RIPA lysate of GT1-7 cells at 4 C overnight, captured on protein A/G-agarose, western blot; cells treated for 72 h with blank CSF (Control), 200 ng/mL PRL (HPRL) or PRL + BSZY-D-containing CSF, with 10 uM MG132

- binding: binds
Substance: β-Trcp (mouse (endogenous in GT1-7))
